{
  "source": "paper PMC5869772",
  "about": "“Quantitative profiling of BATF family proteins/JUNB/IRF hetero-trimers using Spec-seq” (BMC Molecular Biology, 2018)",
  "binders": {"B1": {"name": "mCherry-BATF (full length human BATF with N-terminal mCherry and TEV site) (protein, UniProt Q16520 1-125)", "chain": "MPHSSDSSDSSFSRSPPPGKQDSSDDVRRVQRREKNRIAAQKSRQRQTQKADTLHLESEDLEKQNAALRKEIKQLTEELKYFTSVLNSHEPLCSVLAASTPSPPEVVYSAHAFHQPHVSSPRFQP"}, "B2": {"name": "mCherry-BATF2 (aa 1-142, N-terminal bZIP domain of human BATF2) (domain or fragment, UniProt Q8N1L9 1-142)", "chain": "MHLCGGNGLLTQTDPKEQQRQLKKQKNRAAAQRSRQKHTDKADALHQQHESLEKDNLALRKEIQSLQAELAWWSRTLHVHERLCPMDCASCSAPGLLGCWDQAEGLLGPGPQGQHGCREQLELFQTPGSCYPAQPLSPGPQP"}, "B3": {"name": "mCherry-BATF3 (full length human BATF3 with N-terminal mCherry and TEV site) (protein, UniProt Q9NR55 1-127)", "chain": "MSQGLPAAGSVLQRSVAAPGNQPQPQPQQQSPEDDDRKVRRREKNRVAAQRSRKKQTQKADKLHEEYESLEQENTMLRREIGKLTEELKHLTEALKEHEKMCPLLLCPMNFVPVPPRPDPVAGCLPR"}, "B4": {"name": "IRF4 (full length human) (protein, UniProt Q15306 1-451)", "chain": "MNLEGGGRGGEFGMSAVSCGNGKLRQWLIDQIDSGKYPGLVWENEEKSIFRIPWKHAGKQDYNREEDAALFKAWALFKGKFREGIDKPDPPTWKTRLRCALNKSNDFEELVERSQLDISDPYKVYRIVPEGAKKGAKQLTLEDPQMSMSHPYTMTTPYPSLPAQQVHNYMMPPLDRSWRDYVPDQPHPEIPYQCPMTFGPRGHHWQGPACENGCQVTGTFYACAPPESQAPGVPTEPSIRSAEALAFSDCRLHICLYYREILVKELTTSSPEGCRISHGHTYDASNLDQVLFPYPEDNGQRKNIEKLLSHLERGVVLWMAPDGLYAKRLCQSRIYWDGPLALCNDRPNKLERDQTCKLFDTQQFLSELQAFAHHGRSLPRFQVTLCFGEEFPDPQRQRKLITAHVEPLLARQLYYFAQQNSGHFLRGYDLPEHISNPEDYHRSIRHSSIQE"}},
  "key": {"[1]": {"molecular_target": "T1, JUNB (aa 148-347) with C-terminal 6-histidine tag (human) (UniProt P17275)", "T1 sequence": "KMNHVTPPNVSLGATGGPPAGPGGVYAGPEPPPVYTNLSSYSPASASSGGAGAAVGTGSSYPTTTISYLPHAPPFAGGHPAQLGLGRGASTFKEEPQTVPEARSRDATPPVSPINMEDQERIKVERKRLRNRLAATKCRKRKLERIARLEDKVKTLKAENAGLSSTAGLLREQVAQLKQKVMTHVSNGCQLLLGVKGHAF", "experiment": "pull-down; co-purification: mCherry-BATFx (no affinity tag) co-expressed in E. coli with JUNB(148-347)-6His, purified on Ni-NTA agarose; mCherry colour as indicator of BATFx"}, "[2]": {"molecular_target": "T2, BATF3–JUNB hetero-dimer (human) (UniProt Q9NR55+P17275)", "T2 sequence 1": "B3 chain", "T2 sequence 2": "T1 sequence", "experiment": "native gel or EMSA; complex formed on a dsDNA library: 100 nM BATFx-JUNB heterodimer, 150 nM IRF protein, 1 uM dsDNA library in 1x NEB Cutsmart buffer (pH 7.9) with 10% glycerol, 30 min on ice; native 9% PAGE in Tris/Glycine at 4 °C; both purified"}},
  "note": "No constants are given. Whether binding was seen depends on the method and setting. For some of these results: In cells and extracts the contact can be indirect. Some binding calls cover weakened binding; strength is not graded here. For some of these results: Tags and fused reporters may be left off the sequences shown.",
  "data": [
    {"binder": "B1", "values": [
      {"measurement": "binding", "setting": "[1]", "result": "binds"}
    ]},
    {"binder": "B2", "values": [
      {"measurement": "binding", "setting": "[1]", "result": "binds"}
    ]},
    {"binder": "B3", "values": [
      {"measurement": "binding", "setting": "[1]", "result": "binds"}
    ]},
    {"binder": "B4", "values": [
      {"measurement": "binding", "setting": "[2]", "result": "binds"}
    ]}
  ]
}
